Measurements published in US20220090089A1.
Results are given in words; binding and its absence hold for the method and conditions named. Some results given as binding are weak or reduced against the parent protein; the word gives no strength. Where a sequence is shown, tags or fusion partners need not be part of it.

Chains of the proteins cited; added tags and fusions are not shown. Residues count along the entry.
UniProt P01732, residues 22-235: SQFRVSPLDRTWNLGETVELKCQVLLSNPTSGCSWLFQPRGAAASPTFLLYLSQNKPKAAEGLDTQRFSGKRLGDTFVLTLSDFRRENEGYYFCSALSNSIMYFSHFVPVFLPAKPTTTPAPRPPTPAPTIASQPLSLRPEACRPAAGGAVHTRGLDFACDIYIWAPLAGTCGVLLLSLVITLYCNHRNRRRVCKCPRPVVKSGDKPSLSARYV

Legend:
[1] = target: CD8 on primary human PBMCs / CD8 T cells (human) (UniProt P01732); experiment: flow cytometry of phage-stained human PBMCs (lymphocyte gate)
[2] = target: CD8 on primary human PBMCs / CD8 T cells (human) (UniProt P01732); experiment: flow cytometry of phage-stained human PBMCs

Binder | binding [1] | binding [2]
anti-CD8 hashtag phage nanobody PH-B (phagemid pDXinit-CD8Nb(PH-B)-PAC) (VHH, not shown: large carriers; small tags and cut ends) VHH: QVQLQESGGGSVQPGGSLRLSCAASGFTFDDYAMSWVRQVPGKGLEWVSTINWNGGSAEYAEPVKGRFTISRDNAKNTVYLQMNSLKLEDTAVYYCAKDADLVWYNLSTGQGTQVTVSS | binds | –
anti-CD8 hashtag phage nanobody PH-C (phagemid pDXinit-CD8Nb(PH-C)-PAC) (VHH, not shown: large carriers; small tags and cut ends) VHH: QVQLQESGGGSVQPGGSLRLSCAASGFTFDDYAMSWVRQVPGKGLEWVSTINWNGGSAEYAEPVKGRFTISRDNAKNTVYLQMNSLKLEDTAVYYCAKDADLVWYNLSTGQGTQVTVSS | binds | –
anti-CD8 hashtag phage nanobody PH-A (phagemid pDXinit-CD8Nb(PH-A)-PAC) (VHH, not shown: large carriers; small tags and cut ends) VHH: QVQLQESGGGSVQPGGSLRLSCAASGFTFDDYAMSWVRQVPGKGLEWVSTINWNGGSAEYAEPVKGRFTISRDNAKNTVYLQMNSLKLEDTAVYYCAKDADLVWYNLSTGQGTQVTVSS | binds | –
anti-CD8 hashtag phage nanobody PH-D (phagemid pDXinit-CD8Nb(PH-D)-PAC) (VHH, not shown: large carriers; small tags and cut ends) VHH: QVQLQESGGGSVQPGGSLRLSCAASGFTFDDYAMSWVRQVPGKGLEWVSTINWNGGSAEYAEPVKGRFTISRDNAKNTVYLQMNSLKLEDTAVYYCAKDADLVWYNLSTGQGTQVTVSS | binds | –
PAC-tagged anti-CD8 nanobody-displaying M13 phage (phagemid pDXinit-CD8Nb-PAC) (VHH, not shown: large carriers; small tags and cut ends) VHH: QVQLQESGGGSVQPGGSLRLSCAASGFTFDDYAMSWVRQVPGKGLEWVSTINWNGGSAEYAEPVKGRFTISRDNAKNTVYLQMNSLKLEDTAVYYCAKDADLVWYNLSTGQGTQVTVSS | – | binds
